# For some assays here: The name of at least one read-out is uncertain. Some entries share one result that the patent states for a list of compounds.
# Columns and labels:
# [1] = Plasma concentrations of compound 552 in beagle dogs during the CID study; type: in vivo; details: dog, 2.5 mg/kg
# Experimental: The test article No. 2 (compound 552) was intravenously infused via an implanted catheter over 45 minutes to all the animals in Group 4 four days before the start of TA1 (irinotecan) treatment and throughout the 28-day study period. […] The daily dosage (i.e. 5.0, 15.0 and 5.0 mg/kg/day for Groups 2 to 4 respectively) was administered by two equal doses (i.e. 2.5, 7.5 and 2.5 mg/kg/occasion for Groups 2 to 4 respectively) which were separate by at least 6 h. Each dose was infused at a dose volume of 10 mL/kg/h. […] The actual volume infused was calculated and adjusted based on the most recent practical body weight of each animal. The syringes/bags were changed at appropriate intervals as necessary and the weights recorded prior to the start and at the end of the infusion.
# Body weights were recorded for all animals once prior to group assignment, and approximately one week prior to initiation of treatment. Body weights were recorded for all animals up to 1 day prior to dosing and twice weekly thereafter during the treatment/observation periods, as well as terminally prior to necropsy (fasted). Food consumption was measured daily during the week prior to treatment and throughout the treatment/observation periods. […]
# Plasma concentrations of compound 552 in male beagle dogs receiving low and high intravenous doses of compound 552 as part of the above experiment were determined. […]
# [2] = test system: isolated colonic segments from the shrew; assay: Contractile activity of isolated muscle strips of the shrew; details: bath concentration of 0.3 μM
# Excerpt: J. Evaluation of Contractile Activity of Isolated Muscle Strips from the Stomach, Duodenum and Colon of the Shrew.
# Motilin (threshold concentration of 10^−8 M) enhances contractions induced by electrical field stimulation (4 Hz) by a post-ganglionic interaction with the cholinergic neurotransmission. At higher concentrations, motilin causes a tonic contraction interacting directly with the antral smooth muscle. Analogously, the effects of motilin and [Nle^13]-motilin (Calbiochem), as selective agonists of the motilin receptor, on smooth muscle strips isolated from the gastric antrum, the circular muscle of the duodenum and the colon of the shrew were investigated. Immunohistochemical studies have shown that endocrine cells in the GI tract of the musk shrew express motilin (Kanamori, Y.; Nakazawa, S.; Kitoh, J.; Hoshino, M. The distribution of endocrine cells in the mucosa of the gastrointestinal tract of the house musk shrew, Suncus murinus (Insectivora). Cell. Tissue Res. 1989, 258, 365-71; Kitamura, N.; Yamada, J.; Watanabe, T.; Yamashita, T. An immunohistochemical study on the distribution of endocrine cells in the gastrointestinal tract of the musk shrew, Suncus murinus. Histol Histopathol. 1990, 5, 83-88.) Shrews were fasted for 8-10 h, euthanized with CO2 inhalation, and the stomach, the duodenum and colon isolated immediately and placed in Krebs buffer aerated with 95% O2 and 5% CO2. Specifically, mucosa-free circular muscle strips were isolated from the antral region, the duodenum and the colon using a dissecting microscope. Isometric contractions were recorded in organ baths following equilibration at optimal tension using the PowerLab data acquisition system. Electrical field stimulation (EFS: 0.5 ms pulse duration, 1-32 Hz pulse frequency) was used to induce neurally mediated contractions. In particular, four colonic segments (10-12 mm) were prepared from each animal. The segments were suspended at 1 g initial tension in 10-mL organ baths and equilibrated for 90 min. Experiments were performed to investigate the effect of motilin and [Nle^13]-motilin (10^−9-10^−7 M): a) on the basal tone and the development of spontaneous phasic contractions; b) on neurally mediated contractile responses induced by EFS. […]
# To define the effect of test compounds on different regions of the GI tract of the shrew (gastric antrum, […] and colon) and to evaluate the antagonist affinity of test compounds in this model system, the ability of varying concentrations of test compound to antagonize the motilin or [Nle^13]-motilin-induced contractions was measured in organ baths as described above. […]
Compound,time of Cmax after the start of the 45-min infusion [1] [min],time at which contractile effects reached a maximum [2] [min],time within which contractile effects diminished [2] [min]
CCC[C@@H]1NC(=O)[C@@H](C(C)C)NC(=O)[C@@H](Cc2ccc(O)c(Cl)c2)N[C@@H](C)COc2ccccc2CCCNC1=O [Compound 552],30,,
CC[C@H](C)[C@H](NC(=O)[C@@H]1CCCN1C(=O)[C@@H](NC(=O)[C@@H](N)Cc1ccccc1)C(C)C)C(=O)N[C@@H](Cc1ccccc1)C(=O)N[C@H](C(=O)N[C@@H](Cc1ccc(O)cc1)C(=O)NCC(=O)N[C@@H](CCC(=O)O)C(=O)N[C@@H](CC(C)C)C(=O)N[C@@H](CCC(N)=O)C(=O)N[C@@H](CCCNC(=N)N)C(=O)N[C@@H](CCSC)C(=O)N[C@@H](CCC(N)=O)C(=O)N[C@@H](CCC(=O)O)C(=O)N[C@@H](CCCCN)C(=O)N[C@@H](CCC(=O)O)C(=O)N[C@@H](CCCNC(=N)N)C(=O)N[C@@H](CC(N)=O)C(=O)N[C@@H](CCCCN)C(=O)NCC(=O)N[C@@H](CCC(N)=O)C(=O)O)[C@@H](C)O [motilin],,≤ 4,8 to 10
[Nle^13]-motilin,,≤ 4,8 to 10
